Results on six compounds are retold here after PubChem BioAssay AID186 (DTP/NCI, 2004).

The test system of this experiment is B6D2F1 mice, nontumored toxicity test, survival. Briefly: NCI In Vivo Anticancer Drug Screen. Data for tumor model Nontumored Animals (Toxicity Test) in B6D2F1 (BDF1) mice.

The mice bore no tumour; each value counts animals alive of those treated. Survivors were counted at the toxicity check, usually on the fifth day, unless a day is given; later deaths do not show. Schedule codes are those of the source, taken here to give the interval after Q, in days (D) or hours (H), and the number of doses after X. Marks such as (2×) stand for listed records that agree. Some doses were run more than once; the values are given in rising order.

With `O=C1OC(C(O)CO)C(O)=C1O` (stereo not given), the survivor count was 6 of 6 (dose: 500.0 mg/kg/injection, schedule: Q01DX001 (ip), vehicle: water); 8 of 8 (dose: 500.0 mg/kg/injection, schedule: Q01DX001 (oral), vehicle: water); 6 of 6 (dose: 1000.0 mg/kg/injection, schedule: Q01DX001 (ip), vehicle: water); 8 of 8 (dose: 1000.0 mg/kg/injection, schedule: Q01DX001 (oral), vehicle: water); 3 of 6 (dose: 1200.0 mg/kg/injection, schedule: Q01DX001 (ip), vehicle: water); 2 of 6 (dose: 1500.0 mg/kg/injection, schedule: Q01DX001 (ip), vehicle: water). Further, the survivor count is on record as 8 of 8 (dose: 1500.0 mg/kg/injection, schedule: Q01DX001 (oral), vehicle: water); 3 of 6 (dose: 2000.0 mg/kg/injection, schedule: Q01DX001 (ip), vehicle: water); 8 of 8 (dose: 2000.0 mg/kg/injection, schedule: Q01DX001 (oral), vehicle: water); 0 of 6 (dose: 3000.0 mg/kg/injection, schedule: Q01DX001 (ip), vehicle: water); 7 of 8 (dose: 3000.0 mg/kg/injection, schedule: Q01DX001 (oral), vehicle: water); 7 of 8 (dose: 4000.0 mg/kg/injection, schedule: Q01DX001 (oral), vehicle: water).

Regarding `CCO`, the survivor count (dose: 2.0 grams/kg/injection, schedule: Q01DX001 (ip), vehicle: water) was 10 of 10; the survivor count (dose: 3.0 grams/kg/injection, schedule: Q01DX001 (ip), vehicle: water) is reported as 10 of 10; the survivor count (dose: 4.0 grams/kg/injection, schedule: Q01DX001 (ip), vehicle: water) is 10 of 10; the survivor count (dose: 5.0 grams/kg/injection, schedule: Q01DX001 (ip), vehicle: water) is listed as 10 of 10; the survivor count (dose: 6.0 grams/kg/injection, schedule: Q01DX001 (ip), vehicle: water) was 9 of 10; the survivor count (dose: 8.0 grams/kg/injection, schedule: Q01DX001 (ip), vehicle: water) is on record as 0 of 10.

Turning to `CN(C)/N=N/c1nc[nH]c1C(N)=O`, the survivor count is, setting by setting: (dose: 48.0 mg/kg/injection, schedule: Q01DX005 (ip), vehicle: Klucel (hydroxypropylcellulose) (HPC)) 4 of 4; (dose: 60.0 mg/kg/injection, schedule: Q01DX009 (ip), vehicle: distilled water + Tween-80) 5 of 5; (dose: 72.0 mg/kg/injection, schedule: Q01DX005 (ip), vehicle: Klucel (hydroxypropylcellulose) (HPC)) 4 of 4; (dose: 100.0 mg/kg/injection, schedule: Q01DX009 (ip), vehicle: distilled water + Tween-80) 5 of 5; (dose: 100.0 mg/kg/injection, schedule: Q04DX003 (ip), vehicle: saline with Tween-80) 4 of 4; (dose: 108.0 mg/kg/injection, schedule: Q01DX005 (ip), vehicle: Klucel (hydroxypropylcellulose) (HPC)) 4 of 4. Further, the survivor count by setting is: (dose: 160.0 mg/kg/injection, schedule: Q01DX005 (ip), vehicle: Klucel (hydroxypropylcellulose) (HPC)) 4 of 4; (dose: 167.0 mg/kg/injection, schedule: Q01DX009 (ip), vehicle: distilled water + Tween-80) 5 of 5; (dose: 240.0 mg/kg/injection, schedule: Q01DX005 (ip), vehicle: Klucel (hydroxypropylcellulose) (HPC)) 4 of 4; (dose: 278.0 mg/kg/injection, schedule: Q01DX009 (ip), vehicle: distilled water + Tween-80) 3 of 4; (dose: 400.0 mg/kg/injection, schedule: Q04DX003 (ip), vehicle: saline with Tween-80) 4 of 4; (dose: 800.0 mg/kg/injection, schedule: Q04DX003 (ip), vehicle: saline with Tween-80) 0 of 2 and 4 of 4.

As to `Cc1nc(N)nc(N)c1-c1ccc(Cl)c(Cl)c1`, the survivor count was 10 of 10 (dose: 5.0 mg/kg/injection, schedule: Q04DX003 (sc), vehicle: other); 10 of 10 (dose: 10.0 mg/kg/injection, schedule: Q04DX002 (sc), vehicle: other); 10 of 10 (dose: 10.0 mg/kg/injection, schedule: Q04DX003 (sc), vehicle: other); 10 of 10 (dose: 15.0 mg/kg/injection, schedule: Q04DX002 (sc), vehicle: other); 10 of 10 (dose: 15.0 mg/kg/injection, schedule: Q04DX003 (ip), vehicle: other); 10 of 10 (dose: 15.0 mg/kg/injection, schedule: Q04DX003 (sc), vehicle: other). Also, the survivor count is given as 10 of 10 (dose: 20.0 mg/kg/injection, schedule: Q04DX002 (ip), vehicle: other); 9 of 9 (dose: 20.0 mg/kg/injection, schedule: Q04DX002 (sc), vehicle: other); 10 of 10 (dose: 20.0 mg/kg/injection, schedule: Q04DX003 (ip), vehicle: other); 10 of 10 (dose: 20.0 mg/kg/injection, schedule: Q04DX003 (sc), vehicle: other); 10 of 10 (dose: 25.0 mg/kg/injection, schedule: Q04DX002 (ip), vehicle: other); 10 of 10 (dose: 25.0 mg/kg/injection, schedule: Q04DX002 (sc), vehicle: other). Also, the survivor count is 10 of 10 (dose: 25.0 mg/kg/injection, schedule: Q04DX003 (ip), vehicle: other); 10 of 10 (dose: 25.0 mg/kg/injection, schedule: Q04DX003 (sc), vehicle: other); 10 of 10 (dose: 30.0 mg/kg/injection, schedule: Q04DX002 (ip), vehicle: other); 10 of 10 (dose: 30.0 mg/kg/injection, schedule: Q04DX002 (sc), vehicle: other); 10 of 10 (dose: 30.0 mg/kg/injection, schedule: Q04DX003 (ip), vehicle: other); 10 of 10 (dose: 30.0 mg/kg/injection, schedule: Q04DX003 (sc), vehicle: other). For the same compound, the survivor count runs as follows: (dose: 35.0 mg/kg/injection, schedule: Q04DX002 (ip), vehicle: other) 10 of 10; (dose: 35.0 mg/kg/injection, schedule: Q04DX002 (sc), vehicle: other) 10 of 10.

As to `O=C(O)O`, the survivor count runs as follows: (dose: 400.0 mg/kg/injection, schedule: Q06HX036 (ip), vehicle: water) 10 of 10; (dose: 800.0 mg/kg/injection, schedule: Q06HX036 (ip), vehicle: water) 9 of 10; (dose: 1600.0 mg/kg/injection, schedule: Q06HX036 (ip), vehicle: water) 8 of 10.

For `CN(Cc1cnc2nc(N)nc(N)c2n1)c1ccc(C(=O)N[C@@H](CCC(=O)O)C(=O)O)cc1`, the survivor count runs as follows: (dose: 0.05 mg/kg/injection, schedule: Q06HX024 (ip), vehicle: saline) 8 of 8; (dose: 0.1 mg/kg/injection, schedule: Q06HX024 (ip), vehicle: saline) 8 of 8; (dose: 0.2 mg/kg/injection, schedule: Q06HX024 (ip), vehicle: saline) 8 of 8; (dose: 0.4 mg/kg/injection, schedule: Q06HX024 (ip), vehicle: saline) 8 of 8; (dose: 0.8 mg/kg/injection, schedule: Q06HX024 (ip), vehicle: saline) 6 of 8; (dose: 0.9 mg/kg/injection, schedule: Q01DX009 (ip), vehicle: sodium bicarbonate) 10 of 10. In addition, the survivor count was 10 of 10 (dose: 1.3 mg/kg/injection, schedule: Q01DX009 (ip), vehicle: sodium bicarbonate); 5 of 8 (dose: 1.6 mg/kg/injection, schedule: Q06HX024 (ip), vehicle: saline); 10 of 10 (dose: 2.0 mg/kg/injection, schedule: Q01DX009 (ip), vehicle: sodium bicarbonate); 9 of 10 and 10 of 10 (dose: 3.0 mg/kg/injection, schedule: Q01DX009 (ip), vehicle: sodium bicarbonate); 6 of 8 (dose: 3.2 mg/kg/injection, schedule: Q06HX024 (ip), vehicle: saline); 10 of 10 and 9 of 9 (dose: 3.5 mg/kg/injection, schedule: Q01DX009 (ip), vehicle: sodium bicarbonate). For the same compound, the survivor count reads like this: (dose: 9.41 mg/kg/injection, schedule: Q04DX003 (ip), vehicle: sodium bicarbonate) 10 of 10; (dose: 13.0 mg/kg/injection, schedule: Q04DX003 (ip), vehicle: sodium bicarbonate) 10 of 10; (dose: 13.4 mg/kg/injection, schedule: Q04DX003 (ip), vehicle: sodium bicarbonate) 10 of 10; (dose: 19.2 mg/kg/injection, schedule: Q04DX003 (ip), vehicle: sodium bicarbonate) 10 of 10; (dose: 20.0 mg/kg/injection, schedule: Q04DX003 (ip), vehicle: sodium bicarbonate) 10 of 10; (dose: 25.0 mg/kg/injection, schedule: Q04DX003 (ip), vehicle: sodium bicarbonate) 10 of 10. The survivor count by setting is: (dose: 27.4 mg/kg/injection, schedule: Q04DX003 (ip), vehicle: sodium bicarbonate) 10 of 10; (dose: 30.0 mg/kg/injection, schedule: Q04DX003 (ip), vehicle: sodium bicarbonate) 10 of 10 and 4 of 4; (dose: 35.0 mg/kg/injection, schedule: Q04DX003 (ip), vehicle: sodium bicarbonate) 10 of 10; (dose: 39.2 mg/kg/injection, schedule: Q04DX003 (ip), vehicle: sodium bicarbonate) 10 of 10; (dose: 40.0 mg/kg/injection, schedule: Q04DX003 (ip), vehicle: sodium bicarbonate) 10 of 10; (dose: 44.0 mg/kg/injection, schedule: Q04DX003 (ip), vehicle: sodium bicarbonate) 10 of 10. For the same compound, the survivor count (dose: 56.0 mg/kg/injection, schedule: Q04DX003 (ip), vehicle: sodium bicarbonate) is recorded as 10 of 10; the survivor count (dose: 60.0 mg/kg/injection, schedule: Q04DX003 (ip), vehicle: sodium bicarbonate) is 10 of 10; the survivor count (dose: 66.0 mg/kg/injection, schedule: Q04DX003 (ip), vehicle: sodium bicarbonate) is recorded as 10 of 10; the survivor count (dose: 80.0 mg/kg/injection, schedule: Q04DX003 (ip), vehicle: sodium bicarbonate) is 10 of 10 (2×); the survivor count (dose: 100.0 mg/kg/injection, schedule: Q04DX003 (ip), vehicle: sodium bicarbonate) was 8 of 10 and 10 of 10; the survivor count (dose: 114.0 mg/kg/injection, schedule: Q04DX003 (ip), vehicle: sodium bicarbonate) is listed as 8 of 10. Further, the survivor count runs as follows: (dose: 150.0 mg/kg/injection, schedule: Q04DX003 (ip), vehicle: sodium bicarbonate) 7 of 10 and 10 of 10; (dose: 200.0 mg/kg/injection, schedule: Q04DX003 (ip), vehicle: sodium bicarbonate) 10 of 10.
